This is an account of results in publication PMC7819943, “Rice protein-binding microarrays: a tool to detect cis-acting elements near promoter regions in rice”.

The other results are listed elsewhere or left out.

In the test the target is T1, OsSMF1 (Oryza sativa, UniProt Q6ZLB0 1-436).
T1 sequence: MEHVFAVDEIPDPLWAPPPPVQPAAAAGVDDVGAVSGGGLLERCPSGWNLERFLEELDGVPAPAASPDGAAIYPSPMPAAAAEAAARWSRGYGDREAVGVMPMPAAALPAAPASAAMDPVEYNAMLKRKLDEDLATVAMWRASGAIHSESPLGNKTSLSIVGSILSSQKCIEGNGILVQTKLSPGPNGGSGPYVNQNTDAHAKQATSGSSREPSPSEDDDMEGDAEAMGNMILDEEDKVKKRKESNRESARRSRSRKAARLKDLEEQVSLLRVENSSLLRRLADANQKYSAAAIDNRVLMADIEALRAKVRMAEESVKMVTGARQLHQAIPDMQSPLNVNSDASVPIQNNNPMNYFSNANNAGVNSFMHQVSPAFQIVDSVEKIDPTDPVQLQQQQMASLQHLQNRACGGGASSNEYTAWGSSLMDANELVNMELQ
In words: protein-binding microarray (RPBM); PBS, 2% BSA, 51.3 ng/ul salmon testes DNA, 50 uM zinc acetate, 200 nM TF, 25 C, 1 h; high values mean tight binding. Particulars: protein: recombinant; tags: N-terminal polyhistidine and DsRed monomer fusion (pET32a); chain copies: 2; label: CyDye5-dUTP incorporated in the synthesized complementary strand; 3' TTTTT single-stranded linker to array surface; dsDNA, one strand shown. In outline: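 In PBS with 2% BSA, salmon testes DNA and 50 µM zinc acetate, 200 nM protein was incubated on a custom Agilent array at 25 °C for 1 h and then washed off. The array had been made double-stranded by primer extension with Cy5-dUTP and blocked with 2% BSA. The proteins were transcription factors fused N-terminally to polyhistidine and DsRed, expressed in E. coli BL21-CodonPlus and purified on Ni–NTA. The binding signal is per-feature fluorescence intensity (arbitrary units) from an Axon 4000B scanner.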
In the case of “ATACACCAGGACCACAGCGATGCCTGATATTGACAACCCACGGAGTCACCTAGTGCAG”, the binding signal was 11000 fluorescence intensity (a.u.).

As for “AATAAGCAAACAGATAATATGAAAGAGAATGAGGTGTAATCGGAGTCACCTAGTGCAG”, the binding signal is 3440 fluorescence intensity (a.u.).

Take “CTCTTCCACGCTTCGGCTTCCATCCAATCATCTGCATCGTCGGAGTCACCTAGTGCAG”: the binding signal was 3170 fluorescence intensity (a.u.).

Regarding “GAGTTAGCAGTGTTGACCACGGTCAAGGTGCCACGTCATCCGGAGTCACCTAGTGCAG”, the binding signal is 43000 fluorescence intensity (a.u.).

On to “CACCCAGTCCACCGCGCCGCCATGCCGCGCCACCGGAGCTCGGAGTCACCTAGTGCAG”, for which the binding signal is 3290 fluorescence intensity (a.u.).

On to “TTTCTTCATGCACTGCTCCTACGTGCCGCGATCATTGCTTCGGAGTCACCTAGTGCAG”, for which the binding signal was 3750 fluorescence intensity (a.u.).

As to “AAGGTGTGTGTCACTGGGGCTTCTGGCTATGTTGCCTCTTCGGAGTCACCTAGTGCAG”, the binding signal was 4150 fluorescence intensity (a.u.).

For “TTTTGTCTATATTTAATACTCCATGCATGTGTCCAAAGATCGGAGTCACCTAGTGCAG”, the binding signal is 3340 fluorescence intensity (a.u.).

As to “CTTTTCTTTCTTTCTTTTCGCACTTACAAAACAGCACTGTCGGAGTCACCTAGTGCAG”, the binding signal was 3520 fluorescence intensity (a.u.).

As to “GGGACCACAGGACCTTTCTAAACCTGCAGATATAGAATTGCGGAGTCACCTAGTGCAG”, the binding signal was 19300 fluorescence intensity (a.u.).

Regarding “GTCCCAAAACTGCACCAACACTGCAACTCACCTTGTTCAGCGGAGTCACCTAGTGCAG”, the binding signal is 4050 fluorescence intensity (a.u.).

On to “TTGTGATCGTCTCATTGACGCGGCGGCGGCGGCGGTGCTGCGGAGTCACCTAGTGCAG”, for which the binding signal was 3660 fluorescence intensity (a.u.).

As to “AGCACTATGTTTGATTCATTGGCCAATGTATGCACGGTAACGGAGTCACCTAGTGCAG”, the binding signal is 6580 fluorescence intensity (a.u.).

“GAGTTGTGTGTATGGACACGTGGTGGGCCAGGGGAGGGGACGGAGTCACCTAGTGCAG”: the binding signal is 5720 fluorescence intensity (a.u.).

In the case of “GTCCTTATCTCGGCGTCCGAGCCCACCACCGCACCACCGCCGGAGTCACCTAGTGCAG”, the binding signal is 3380 fluorescence intensity (a.u.).

As for “TTTGTGTGTGTAGGAAAATTTTGATGTGATGGAAAAGTTGCGGAGTCACCTAGTGCAG”, the binding signal was 3450 fluorescence intensity (a.u.).

“GTGATTCACAAAAGAAAGCCTATCACGCGTGGAAACATCCCGGAGTCACCTAGTGCAG”: the binding signal is 3990 fluorescence intensity (a.u.).

“GCCCGGAAGCTAGCGCCTCGTCGACTTGGGCGGCGGCTGACGGAGTCACCTAGTGCAG”: the binding signal is 18000 fluorescence intensity (a.u.).

As for “CCAACGCCTCGTCCGCGCGTGTCGACCTGGCGATCGCCTGCGGAGTCACCTAGTGCAG”, the binding signal is 5150 fluorescence intensity (a.u.).

For the sequence “CCTCGCGCCGCCGCTGCGTCATCTCCGGCCTCCGTCGCACCGGAGTCACCTAGTGCAG”, the binding signal is 6430 fluorescence intensity (a.u.).

Consider “AAAGGATGATATTTATTCGATCCTTGTTCGAATGTAGACTCGGAGTCACCTAGTGCAG”, for which the binding signal is 55700 fluorescence intensity (a.u.).

On to “AGAGGAGGAGGAGGAGGAGGAAGGAAACCCACGAGGGCACCGGAGTCACCTAGTGCAG”, for which the binding signal was 20200 fluorescence intensity (a.u.).

Turning to “CGGGTCGTCTTCATCGACCTCCTACGCCCCGTCACGGCGCCGGAGTCACCTAGTGCAG”, the binding signal is 4810 fluorescence intensity (a.u.).

On to “TCTGCTTCTTGCGCCAAAGCTTCTGCTCACGTGTGATTTGCGGAGTCACCTAGTGCAG”, for which the binding signal was 5420 fluorescence intensity (a.u.).

Take “ATAATGGGAAATGTGGGGTAGGATTGGTATTGGAAAATGACGGAGTCACCTAGTGCAG”: the binding signal was 3180 fluorescence intensity (a.u.).

As for “CAAAATACAGCAACATTTACAGCTTCGACACTGCACTCAACGGAGTCACCTAGTGCAG”, the binding signal is 3410 fluorescence intensity (a.u.).

For the sequence “CCCCGGACTCCACTCTACACCCTTCACGCGCGCGAGCACGCGGAGTCACCTAGTGCAG”, the binding signal was 3410 fluorescence intensity (a.u.).

“CATACACACACTGTGTCTTAGAGTCCGTGCTACAGCTGGCCGGAGTCACCTAGTGCAG”: the binding signal is 3150 fluorescence intensity (a.u.).

In the case of “AGTAGGACGTCCTTTCGCCTCGTCGTCCACGTTGGAAAACCGGAGTCACCTAGTGCAG”, the binding signal was 4700 fluorescence intensity (a.u.).

As to “GGACGTGGTGTTTTGCAAGATTGCTGATCACATGGAGAAACGGAGTCACCTAGTGCAG”, the binding signal is 3620 fluorescence intensity (a.u.).

For the sequence “AATCATGCCTTAATCTAGGCCTCGTTCGAACTAAGGCATGCGGAGTCACCTAGTGCAG”, the binding signal is 24500 fluorescence intensity (a.u.).

Regarding “AGAAAACCAATCCGAATCCGGAGAGAGAAGCGCAGGAGGCCGGAGTCACCTAGTGCAG”, the binding signal was 10200 fluorescence intensity (a.u.).

Regarding “TGGCGCGCTCAGAGACGGCCTCACACGTACGACTCGCCTCCGGAGTCACCTAGTGCAG”, the binding signal is 20400 fluorescence intensity (a.u.).

“TGCTTCCGTTTGTTGATCGATGCTGGCGATGATGTGTGTGCGGAGTCACCTAGTGCAG”: the binding signal is 4160 fluorescence intensity (a.u.).

On to “GTATTTAGCCCTGGTTGTATGGTCATGACGGGTTATCGTACGGAGTCACCTAGTGCAG”, for which the binding signal is 3280 fluorescence intensity (a.u.).

Take “TACCAGTCCCGAAACAACTAGTATTTCTCTTCGATACGGACGGAGTCACCTAGTGCAG”: the binding signal was 3520 fluorescence intensity (a.u.).

As for “CGCCCACCTATCTTACCACTGACACATTGGCCCCACCACCCGGAGTCACCTAGTGCAG”, the binding signal is 4120 fluorescence intensity (a.u.).

Turning to “GCCGCTCGCCGGCACCACGTCGCCTTCTCCCCTTGCAGACCGGAGTCACCTAGTGCAG”, the binding signal was 3670 fluorescence intensity (a.u.).

With “GTGTGTGTGTGTGTATATATAATCCAAATATAATACTTTTCGGAGTCACCTAGTGCAG”, the binding signal was 3620 fluorescence intensity (a.u.).

As for “AACCCAATCTTACACACATCTGTCATCAAGATCCGTGCGCCGGAGTCACCTAGTGCAG”, the binding signal is 3980 fluorescence intensity (a.u.).

For the sequence “GTGGACCGTGGTTACACGTGCCAGGTCGACGTGTTCTTCTCGGAGTCACCTAGTGCAG”, the binding signal is 6290 fluorescence intensity (a.u.).

In the case of “TAAAGTTCTTGCTGCTGTGACTCTGCTTTGCTTGCTTCTTCGGAGTCACCTAGTGCAG”, the binding signal is 4740 fluorescence intensity (a.u.).
